Experimental data: the supplement of paper PMC12542422
Where a name gives a salt, the structure may show the parent alone. ± gives the standard deviation of the averaged measurements. The list shows a part of the results. These are raw signals, not scaled to a control.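 HeLa cells imaged for ribosome-assembly readouts (ENP1 staining with or without export block, or inducible tagged ribosomal protein reporters); machine learning classified each cell's signal location against solvent (DMSO) controls. Hits exceeded the DMSO false-positive mean by five standard deviations, then were visually confirmed; three biological replicates.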

What was measured:
[1] = system: HeLa K (ENP1 immunofluorescence, +LMB); assay: fraction of cells with nucleolar or nucleolar/nucleoplasmic ENP1 signal (MainHitrate); higher = more cells with nucleolar/nuclear readout signal (for ENP1 -LMB: less RNAPI inhibition; for +LMB ENP1 and RP reporters: stronger nuclear/nucleolar retention, i.e. ribosome biogenesis defect); details: concentration: 1 µM; treatment time: 6 h; ENP1 +LMB; leptomycin B: 20 nM, last 1.5 h
[2] = system: HeLa K (ENP1 immunofluorescence, no LMB); assay: as above; details: concentration: 1 µM; treatment time: 6 h; ENP1 -LMB; leptomycin B: none
HeLa RPS2-YFP reporter = assay: fraction of reporter-positive cells with nuclear (nucleolar or nucleolar/nucleoplasmic) RPS2-YFP (MainHitrate); higher = more cells with nucleolar/nuclear readout signal (for ENP1 -LMB: less RNAPI inhibition; for +LMB ENP1 and RP reporters: stronger nuclear/nucleolar retention, i.e. ribosome biogenesis defect); details: concentration: 1 µM; treatment time: 6 h
HeLa RPL29-GFP reporter = assay: fraction of reporter-positive cells with nuclear (nucleolar or nucleolar/nucleoplasmic) RPL29-GFP (MainHitrate); higher = more cells with nucleolar/nuclear readout signal (for ENP1 -LMB: less RNAPI inhibition; for +LMB ENP1 and RP reporters: stronger nuclear/nucleolar retention, i.e. ribosome biogenesis defect); details: concentration: 1 µM; treatment time: 6 h

SMILES | fraction [1] | fraction [2] | fraction of reporter-positive cells with nuclear (HeLa RPS2-YFP reporter) | fraction of reporter-positive cells with nuclear (HeLa RPL29-GFP reporter)
Nc1nc(=O)[nH]cc1F [Flucytosine (Ancobon)] | 0.0811 ± 0.038 | 0.9978 ± 0.0038 | 0.0764 ± 0.057 | 0.211 ± 0.034
CCOC(=O)n1ccn(C)c1=S [Carbimazole] | 0.0604 ± 0.072 | 0.9947 ± 0.0091 | 0.103 ± 0.1 | 0.205 ± 0.075
CC(=O)S[C@@H]1CC2=CC(=O)CC[C@]2(C)[C@H]2CC[C@@]3(C)[C@@H](CC[C@@]34CCC(=O)O4)[C@H]12 [Spironolactone] | 0.0723 ± 0.099 | 0.985 ± 0.025 | 0.106 ± 0.086 | 0.221 ± 0.064
c1ccc2[nH]c(-c3cscn3)nc2c1 [Thiabendazole] | 0.128 ± 0.16 | 0.999 ± 0.0018 | 0.083 ± 0.021 | 0.21 ± 0.083
Nc1ccc(C(=O)O)c(O)c1 [Aminosalicylate sodium] | 0.0717 ± 0.08 | 0.977 ± 0.039 | 0.128 ± 0.12 | 0.226 ± 0.039
CCNC(=O)CCC/C=C\C[C@@H]1[C@@H](/C=C/[C@@H](O)CCc2ccccc2)[C@H](O)C[C@@H]1O [Bimatoprost] | 0.107 ± 0.13 | 0.9978 ± 0.0038 | 0.12 ± 0.081 | 0.251 ± 0.082
CCOc1cc(N)c(Cl)cc1C(=O)NCC1CN(Cc2ccc(F)cc2)CCO1 (stereo not drawn) [Mosapride citrate] | 0.192 ± 0.25 | 0.9989 ± 0.002 | 0.116 ± 0.067 | 0.209 ± 0.053
CC(NCCc1ccc(O)cc1)C(O)c1ccc(O)cc1 (stereo not drawn) [Ritodrine hydrochloride (Yutopar)] | 0.136 ± 0.2 | 0.991 ± 0.015 | 0.116 ± 0.1 | 0.221 ± 0.093
CC(C)NCC(O)c1ccc(O)c(O)c1 (stereo not drawn) [Isoprenaline hydrochloride] | 0.13 ± 0.2 | 0.9952 ± 0.0083 | 0.126 ± 0.085 | 0.247 ± 0.086
C=CC1=C(C(=O)O)N2C(=O)[C@@H](NC(=O)/C(=N\O)c3csc(N)n3)[C@H]2SC1 [Cefdinir (Omnicef)] | 0.102 ± 0.061 | 0.9974 ± 0.0045 | 0.117 ± 0.1 | 0.208 ± 0.063
C=C1CC[C@H](O)C/C1=C/C=C1\CCC[C@]2(C)[C@@H]([C@H](C)CCCC(C)C)CC[C@@H]12 [Vitamin D3 (Cholecalciferol)] | 0.0452 ± 0.044 | 0.978 ± 0.038 | 0.1 ± 0.1 | 0.203 ± 0.08
CN(C)CCCSC(=N)N [Dimaprit 2HCl] | 0.0514 ± 0.056 | 0.99948 ± 0.0009 | 0.149 ± 0.17 | 0.299 ± 0.22
COc1cc2c(cc1OC)CC(=O)N(CCCN(C)C[C@H]1Cc3cc(OC)c(OC)cc31)CC2 [Ivabradine HCl (Procoralan)] | 0.0734 ± 0.1 | 0.9958 ± 0.0073 | 0.0909 ± 0.061 | 0.203 ± 0.028
CC(=O)OCC(=O)[C@@]1(O)CC[C@H]2[C@@H]3CCC4=CC(=O)CC[C@]4(C)[C@H]3C(=O)C[C@@]21C [Cortisone acetate (Cortone)] | 0.137 ± 0.18 | 0.99 ± 0.017 | 0.158 ± 0.091 | 0.254 ± 0.079
CN(C)CCc1c[nH]c2ccc(CS(=O)(=O)N3CCCC3)cc12 [Almotriptan malate (Axert)] | 0.0885 ± 0.13 | 0.9975 ± 0.0044 | 0.117 ± 0.08 | 0.234 ± 0.057
CCOC(=O)C1=C(C)NC(C)=C(C(=O)OCC)C1c1ccccc1/C=C/C(=O)OC(C)(C)C [Lacidipine (Lacipil, Motens)] | 0.0956 ± 0.12 | 0.992 ± 0.014 | 0.141 ± 0.075 | 0.227 ± 0.086
CC(C(=O)O)c1ccc2c(c1)CC(=O)c1ccccc1S2 (stereo not drawn) [Zaltoprofen] | 0.0966 ± 0.12 | 0.986 ± 0.024 | 0.137 ± 0.12 | 0.225 ± 0.064
CN(C/C=C/C#CC(C)(C)C)Cc1cccc2ccccc12 [Terbinafine (Lamisil, Terbinex)] | 0.104 ± 0.093 | 0.9987 ± 0.0023 | 0.118 ± 0.092 | 0.224 ± 0.073
CC(=O)/N=c1/sc(S(N)(=O)=O)nn1C [Methazolamide] | 0.0436 ± 0.036 | 0.987 ± 0.023 | 0.0983 ± 0.098 | 0.191 ± 0.03
N#C[C@@H]1C[C@@H]2C[C@@H]2N1C(=O)[C@@H](N)C12CC3CC(CC(O)(C3)C1)C2 | 0.0461 ± 0.012 | 0.9981 ± 0.0033 | 0.128 ± 0.086 | 0.23 ± 0.06
O=c1n(CCCN2CCN(c3cccc(Cl)c3)CC2)nc2ccccn12 [Trazodone hydrochloride (Desyrel)] | 0.044 ± 0.036 | 0.994 ± 0.01 | 0.0916 ± 0.097 | 0.237 ± 0.04
COc1cc2nc(N3CCN(C(=O)c4ccco4)CC3)nc(N)c2cc1OC [Prazosin HCl] | 0.0997 ± 0.09 | 0.9954 ± 0.008 | 0.118 ± 0.074 | 0.214 ± 0.089
CCCCCCCN(CC)CCCC(O)c1ccc(NS(C)(=O)=O)cc1 (stereo not drawn) [Ibutilide fumarate] | 0.0965 ± 0.13 | 0.993 ± 0.013 | 0.115 ± 0.072 | 0.223 ± 0.076
CC(=O)OCC(=O)[C@@]1(O)[C@H](C)C[C@H]2[C@@H]3CCC4=CC(=O)C=C[C@]4(C)[C@@]3(F)[C@@H](O)C[C@@]21C [Dexamethasone acetate] | 0.0606 ± 0.072 | 0.985 ± 0.026 | 0.126 ± 0.11 | 0.279 ± 0.14
COc1cc(/C=C/C(=O)CC(=O)/C=C/c2ccc(O)c(OC)c2)ccc1O [Curcumin] | 0.0885 ± 0.12 | 0.991 ± 0.016 | 0.114 ± 0.073 | 0.218 ± 0.053
C[C@@](Cc1ccc(O)c(O)c1)(NN)C(=O)O [Carbidopa] | 0.148 ± 0.23 | 0.984 ± 0.027 | 0.106 ± 0.067 | 0.222 ± 0.066
Nc1cccc2c1CN(C1CCC(=O)NC1=O)C2=O (stereo not drawn) [Lenalidomide] | 0.0567 ± 0.018 | 0.9989 ± 0.0019 | 0.102 ± 0.1 | 0.216 ± 0.069

Part of the list above, as labelled records:
CC(C)NCC(O)c1ccc(O)c(O)c1 (stereo not drawn) [Isoprenaline hydrochloride]
  fraction [1]: 0.13 ± 0.2; fraction [2]: 0.9952 ± 0.0083; fraction of reporter-positive cells with nuclear (HeLa RPS2-YFP reporter): 0.126 ± 0.085; fraction of reporter-positive cells with nuclear (HeLa RPL29-GFP reporter): 0.247 ± 0.086
C=CC1=C(C(=O)O)N2C(=O)[C@@H](NC(=O)/C(=N\O)c3csc(N)n3)[C@H]2SC1 [Cefdinir (Omnicef)]
  fraction [1]: 0.102 ± 0.061; fraction [2]: 0.9974 ± 0.0045; fraction of reporter-positive cells with nuclear (HeLa RPS2-YFP reporter): 0.117 ± 0.1; fraction of reporter-positive cells with nuclear (HeLa RPL29-GFP reporter): 0.208 ± 0.063
